Primary screen of a compound library

Protein sequences, listed by entry. Tags and fused reporters are not part of them.
UniProt E9BF75, entry or part of it: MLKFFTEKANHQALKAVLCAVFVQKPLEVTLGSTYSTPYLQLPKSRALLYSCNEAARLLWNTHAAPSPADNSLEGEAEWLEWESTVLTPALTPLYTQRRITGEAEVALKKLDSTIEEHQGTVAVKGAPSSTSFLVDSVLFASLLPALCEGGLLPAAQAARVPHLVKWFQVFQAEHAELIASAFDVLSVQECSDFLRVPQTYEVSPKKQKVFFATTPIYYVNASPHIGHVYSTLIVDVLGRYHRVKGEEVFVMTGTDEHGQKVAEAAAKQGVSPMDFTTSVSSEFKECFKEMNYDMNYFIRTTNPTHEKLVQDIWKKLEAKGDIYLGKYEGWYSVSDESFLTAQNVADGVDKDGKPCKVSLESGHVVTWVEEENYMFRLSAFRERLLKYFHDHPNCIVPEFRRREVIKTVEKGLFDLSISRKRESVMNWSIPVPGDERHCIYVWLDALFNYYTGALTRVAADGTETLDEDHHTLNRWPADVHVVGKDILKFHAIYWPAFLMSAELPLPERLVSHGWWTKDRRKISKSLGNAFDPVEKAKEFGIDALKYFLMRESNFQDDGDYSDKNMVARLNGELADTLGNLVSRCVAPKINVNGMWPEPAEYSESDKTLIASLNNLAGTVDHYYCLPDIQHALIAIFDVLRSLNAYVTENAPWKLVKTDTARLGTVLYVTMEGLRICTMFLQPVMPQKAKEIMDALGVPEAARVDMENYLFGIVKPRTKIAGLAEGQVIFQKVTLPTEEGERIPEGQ

From ChEMBL document CHEMBL3988442, “University of Dundee, Small-Polar-MMV Screening Library” (2021).

Results are percentages, as filed.
The record does not define 0% and 100%; most values in the screen are far below 50% and negative numbers occur (in some assays of this library far below -100).
Compounds were drawn at random from those tested, without regard to their results.
A dash means the value is not listed here; it may have been measured.

Mtb heat-shock: 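Assay on Mycobacterium tuberculosis, filed only as a heat shock assay from Cornell; the read-out is not stated. The concentration is filed as 10 mM, unlikely as a test dose, so the dose is not known. The record gives no direction; compounds that gave an IC50 in retests scored well above the rest, so higher reads as stronger inhibition. Of about 69,000 compounds tested this way, about 930 (1.4%) reached 50% or more in at least one test.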
LdMetRS: 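Methionyl-tRNA synthetase (putative), Leishmania donovani (UniProt E9BF75). Primary screen of methionyl-tRNA synthetase; the read-out is not stated. The test concentration is not given. Values are per cent inhibition. About 68,000 compounds were tested under these conditions; 0.035% (about 24) showed 50% or more at least once.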

SMILES: c1ccc(CN2CCc3ncnc(-c4cccnc4)c3CC2)nc1
LdMetRS: 11.75%

SMILES: NC(=O)C1=NC2=NS(=O)(=O)c3ccccc3N2N1Cc1ccc(Cl)cc1
Mtb heat-shock: 9.555%
LdMetRS: 15.84%

SMILES: CN(C)S(=O)(=O)N1CCC2(COCc3cnc(-c4cccnc4)nc32)C1 (stereo not shown)
Mtb heat-shock: 6.382%
LdMetRS: 12.4%

SMILES: [H][C@@]12OCCN(C(=O)C3=CCCC3)[C@@]1([H])CC[C@H]2OC
Mtb heat-shock: 19.04%

SMILES: Cc1nn(CCO)c(C)c1-c1cc(C(C)(C)C)nc(N)c1C#N
Mtb heat-shock: -13.94%
LdMetRS: 4.478%

SMILES: O=S(=O)(C1CC1)N1CCC2(CCCN(c3ncc(F)cn3)C2)C1 (stereo not shown)
Mtb heat-shock: 11.02%
LdMetRS: 12.28%

SMILES: COc1ccc(N2CCN(C(=O)COc3nccc(C)n3)CC2)cc1
Mtb heat-shock: 18.8%
LdMetRS: 14.08%

SMILES: Cc1nnc2n1CCN(Cc1csc(-c3ccsc3)n1)C2
Mtb heat-shock: -0.9289%
LdMetRS: 23.89%

SMILES: CN(C)S(=O)(=O)N1CCN(c2nccc(C(F)(F)F)n2)CC1
Mtb heat-shock: 0.5476%
LdMetRS: 4.433%

SMILES: [H][C@@]12CCN(S(=O)(=O)c3ccccc3)[C@]1([H])CC[C@@H](c1nc(C)no1)O2
Mtb heat-shock: -26.97%

SMILES: Cc1nc(NCC(O)CN2CCCCCC2)c2c(C)nn(C)c2n1 (stereo not shown)
Mtb heat-shock: 15.15%
LdMetRS: 19.4%

SMILES: Cc1nc(C2CCCN(C(=O)c3ccncc3)C2)c2sccn12 (stereo not shown)
Mtb heat-shock: -30.79%
LdMetRS: 8.475%

SMILES: COCc1ccc(C(=O)N(CCC#N)Cc2ccccn2)cc1
Mtb heat-shock: -18.97%
LdMetRS: 13.79%

SMILES: CNC(=O)c1cc2c(nc1N(C)C)CCN(c1ncc(C)cn1)CC2
LdMetRS: 7.038%

SMILES: CCN1CCC2(CC1)CN(C(=O)c1cccnc1)c1ccc(Cl)cc12.O=C(O)C(F)(F)F.O=C(O)C(F)(F)F
Mtb heat-shock: 38.38%

SMILES: Cc1cnn(CCC(=O)N2CCN(c3ccc(C#N)cn3)CC2)c1
Mtb heat-shock: -9.489%
LdMetRS: 21.08%

SMILES: Cc1cc(S(=O)(=O)N2C[C@H](C3CC3)[C@@H](N)C2)c(C)s1
Mtb heat-shock: -10.37%
LdMetRS: 21.14%

SMILES: CCc1ccc(CN2CCC(CNC(=O)c3ccc(C)nc3)C2)nc1 (stereo not shown)
Mtb heat-shock: 0.9595%
LdMetRS: 3.344%

SMILES: O=C1CO[C@H]2CN(Cc3ccccc3Br)C[C@@H]2N1
LdMetRS: 9.061%

SMILES: Cc1ccc(N2CCCC(NCc3ccc4c(c3)CCO4)C2)nn1 (stereo not shown)
Mtb heat-shock: -7.222%
LdMetRS: 16.87%

SMILES: c1coc(CN2C[C@@H]3OCCN(CC4CCCO4)[C@@H]3C2)c1 (stereo partly shown)
LdMetRS: 13.33%

SMILES: CCc1nnc(CN2CCN(c3cccc(OC)c3)C(=O)C2)o1
Mtb heat-shock: -2.517%
LdMetRS: 5.07%

SMILES: CC1CCCN(C(=O)c2ccc(-c3ccco3)o2)C1 (stereo not shown)
Mtb heat-shock: 8.441%
LdMetRS: 14.73%

SMILES: Cn1ncc2c(=O)[nH]c(CN3CCCC3Cc3ccccc3)nc21 (stereo not shown)
Mtb heat-shock: 13.84%
LdMetRS: 7.874%

SMILES: CN1CCCN(C(=O)c2cccc(S(=O)(=O)NCC3(C)COC3)c2)CC1
Mtb heat-shock: 12.56%
LdMetRS: 9.355%

SMILES: CCN(CC)Cc1cnc2n1CCN(C1CCOC1)CC2 (stereo not shown)
Mtb heat-shock: -24.85%
LdMetRS: 14.38%

SMILES: Cc1cc(NC(=O)NCC2(O)CCCC2)ccn1
Mtb heat-shock: -18.2%
LdMetRS: 16.06%

SMILES: Cn1cnc2c1C(COCc1ccccc1)N(Cc1ccncc1)CC2.O=C(O)C(F)(F)F.O=C(O)C(F)(F)F.O=C(O)C(F)(F)F (stereo not shown)
Mtb heat-shock: -6.061%

SMILES: CN(C)C(=O)COc1ccccc1CN1CCOC2(CCCC2)C1
Mtb heat-shock: 10.66%
LdMetRS: 7.246%

SMILES: Cc1ccnc(NCc2cn3c(C)csc3n2)n1
Mtb heat-shock: -44.5%
LdMetRS: 5.042%

SMILES: O=C(O)C(F)(F)F.[H][C@]12CC[C@@]3(N=C(C)N(CCOC)C3=O)[C@@]1([H])CN(Cc1ccccc1F)C2
Mtb heat-shock: -5.651%

SMILES: O=C(NCCCO)C1(CC2CC(c3ccc(F)cc3)=NO2)CCOCC1 (stereo not shown)
Mtb heat-shock: -31.13%
LdMetRS: 7.862%

SMILES: Cc1ccsc1CN1CC[C@H]2O[C@H](C(=O)N3CCCO3)CC[C@H]21
LdMetRS: 11.11%

SMILES: [H][C@@]12CCN(C(=O)NCC)C[C@]1([H])CCN(C1CCCCC1)C(=O)C2
Mtb heat-shock: -6.541%

SMILES: Cn1cccc1-c1cc(C(=O)N2CC(c3cccnc3)C2)[nH]n1
Mtb heat-shock: -21.86%
LdMetRS: 10.37%

SMILES: O=S(=O)(c1cc(F)ccc1F)N1CCCC1c1ccco1 (stereo not shown)
Mtb heat-shock: -33.23%
LdMetRS: 0.8596%

SMILES: O=C(NCC1CC1)C1CCC2(CCN(C(=O)c3cccs3)CC2)O1 (stereo not shown)
Mtb heat-shock: -3.796%
LdMetRS: 7.372%

The first 2 entries again:

SMILES,Mtb heat-shock,LdMetRS
c1ccc(CN2CCc3ncnc(-c4cccnc4)c3CC2)nc1,-,11.75%
NC(=O)C1=NC2=NS(=O)(=O)c3ccccc3N2N1Cc1ccc(Cl)cc1,9.555%,15.84%